PubChem BioAssay AID1259308 | NCATS | 2017
Test: 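Knock-downs that increase output of a recombinant reporter protein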 (primary screen). Cells: human HEK293 embryonic kidney cells stably expressing firefly luciferase (HEK-CMV-Luc2-Hygro). Reagents: single siRNA against human genes, 0.8 pmol siRNA per well. Timing: 72 h. Detection: 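Reporter luminescence and viable-cell signal on separate replicate plates, given as percent of non-targeting control and median/MAD z-scores, plus per-cell luciferase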. Direction: total luciferase, z-score and total luciferase, % of control: higher = more reporter protein produced; luciferase per cell, z-score: higher = more reporter output per viable cell; viable cells, % of control: higher = more viable cells. Active means: 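An siRNA counts as active if its total luciferase robust z-score exceeds 3; genes with two or more such siRNAs out of three were retested with fresh siRNAs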. Meaning of the calls: active = raised luciferase; inactive = no rise.
The deposit covers about 59,000 reagents; below is a part drawn at random. In the full data, about 1,510 (2.6%) got an active call. 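Calls use total luciferase alone and ignore viability, so some active siRNAs may act by altering cell number.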 Reagents against one gene are numbered here. No sequences are given here.

| gene knocked down | reagent no. | total luciferase, z-score | total luciferase, % of control | luciferase per cell, z-score | viable cells, % of control | Outcome |
| --- | --- | --- | --- | --- | --- | --- |
| PPARGC1B | 1 | 1.17 | 105 | 1.13 | 87.3 | inactive |
| PPARGC1B | 2 | 2.11 | 124 | 2.61 | 69.6 | inactive |
| PPARGC1B | 3 | -0.319 | 75.5 | 0.557 | 72.9 | inactive |
| GMEB1 | 1 | -1.25 | 57 | -0.811 | 78.9 | inactive |
| GMEB1 | 2 | 1.03 | 102 | 0.682 | 95.6 | inactive |
| GMEB1 | 3 | -0.0414 | 81.1 | -0.184 | 95.1 | inactive |
| GJA5 | 1 | -0.0399 | 81.1 | -0.497 | 103 | inactive |
| GJA5 | 2 | 1.03 | 102 | 0.702 | 95.1 | inactive |
| GJA5 | 3 | -0.0395 | 81.1 | -0.0992 | 93 | inactive |
| MMAA | 1 | -0.014 | 81.6 | -0.571 | 106 | inactive |
| MMAA | 2 | 0.359 | 89 | 0.215 | 94 | inactive |
| MMAA | 3 | 2.24 | 127 | 1.36 | 98.9 | inactive |
| MMRN2 | 1 | 0.692 | 95.7 | 0.431 | 95.4 | inactive |
| MMRN2 | 2 | 0.212 | 86.1 | -0.625 | 113 | inactive |
| MMRN2 | 3 | 1.3 | 108 | 1.64 | 78.2 | inactive |
| CDC6 | 1 | -0.865 | 64.7 | -0.499 | 82.4 | inactive |
| CDC6 | 2 | -0.28 | 76.3 | -0.0779 | 87.1 | inactive |
| CDC6 | 3 | -0.741 | 67.1 | 0.044 | 74.2 | inactive |
| OLR1 | 1 | -1.07 | 60.5 | -0.158 | 70.5 | inactive |
| OLR1 | 2 | 0.866 | 99.1 | 0.575 | 95.2 | inactive |
| OLR1 | 3 | -1.94 | 43.3 | -1.52 | 72.1 | inactive |
| KLHL15 | 1 | -0.0559 | 80.8 | 0.408 | 81.1 | inactive |
| KLHL15 | 2 | -0.388 | 74.2 | -0.227 | 88 | inactive |
| KLHL15 | 3 | -0.552 | 70.9 | 0.184 | 75.5 | inactive |
| UNC45A | 1 | 3.07 | 143 | 1.56 | 106 | active |
| UNC45A | 2 | 2.56 | 133 | 0.794 | 120 | inactive |
| UNC45A | 3 | -0.507 | 71.8 | -0.563 | 93 | inactive |
| SCN4A | 1 | -0.222 | 77.5 | -0.1 | 88.9 | inactive |
| SCN4A | 2 | -1.46 | 52.9 | -2.17 | 105 | inactive |
| SCN4A | 3 | 1.28 | 107 | 2.09 | 69.2 | inactive |
| ACOX3 | 1 | 0.286 | 87.6 | 0.071 | 96 | inactive |
| ACOX3 | 2 | 0.957 | 101 | 0.108 | 110 | inactive |
| ACOX3 | 3 | -1.16 | 58.7 | -2.06 | 113 | inactive |
| PABPC1L2B | 1 | -0.382 | 74.3 | -0.337 | 90.7 | inactive |
| PABPC1L2B | 2 | -0.692 | 68.1 | -0.79 | 93.7 | inactive |
| PABPC1L2B | 3 | -0.293 | 76.1 | -0.978 | 110 | inactive |
| KCTD1 | 1 | 0.376 | 89.4 | 0.323 | 91.7 | inactive |
| KCTD1 | 2 | -1.11 | 59.7 | -0.728 | 80.8 | inactive |
| KCTD1 | 3 | -1.29 | 56.3 | -1.93 | 104 | inactive |
